Data on 26 molecules can be found in the supplement of paper PMC12542422.

Structures can show the parent of a compound that is named as a salt. ± gives the standard deviation of the averaged measurements. The list shows a part of the results. These are raw signals, not scaled to a control.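 Across three biological replicates, HeLa cells were imaged for ribosome assembly using ENP1 staining (export block present or absent) or inducible tagged ribosomal protein reporters. Machine learning classified each cell's signal localization relative to DMSO controls. Hits exceeded the DMSO false-positive mean by five standard deviations and were then visually confirmed.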

For the test, the system named is HeLa K (ENP1 immunofluorescence, +LMB). The test can be described thus: fraction of cells with nucleolar or nucleolar/nucleoplasmic ENP1 signal (MainHitrate); higher = more cells with nucleolar/nuclear readout signal (for ENP1 -LMB: less RNAPI inhibition; for +LMB ENP1 and RP reporters: stronger nuclear/nucleolar retention, i.e. ribosome biogenesis defect). The settings on record: concentration: 1 µM; treatment time: 6 h; ENP1 +LMB; leptomycin B: 20 nM, last 1.5 h.
Regarding `CCCSc1nc(N[C@@H]2C[C@H]2c2ccc(F)c(F)c2)c2nnn([C@@H]3C[C@H](OCCO)[C@@H](O)[C@H]3O)c2n1` [Ticagrelor], the fraction came out at 0.0911 ± 0.14.
Take `CC[C@H]1OC(=O)[C@H](C)[C@@H](O[C@H]2C[C@@](C)(OC)[C@@H](O)[C@H](C)O2)[C@H](C)[C@@H](O[C@@H]2O[C@H](C)C[C@H](N(C)C)[C@H]2O)[C@](C)(OC)C[C@@H](C)C(=O)[C@H](C)[C@@H](O)[C@]1(C)O` [Clarithromycin (Biaxin, Klacid)]: the fraction was found to be 0.153 ± 0.23.
In the case of `CO[C@H]1/C=C/O[C@@]2(C)Oc3c(C)c(O)c4c(O)c(c(/C=N/N5CCN(C6CCCC6)CC5)c(O)c4c3C2=O)NC(=O)/C(C)=C\C=C\[C@H](C)[C@H](O)[C@@H](C)[C@@H](O)[C@@H](C)[C@H](OC(C)=O)[C@@H]1C` [Rifapentine (Priftin)], the fraction turned out to be 0.108 ± 0.13.
In the case of `CNCCc1ccccn1` [Betahistine 2HCl] it was 0.0925 ± 0.14.
In turn, `C[C@@H](CN1CC(=O)NC(=O)C1)N1CC(=O)NC(=O)C1` [Dexrazoxane Hydrochloride] displayed a fraction of 0.141 ± 0.16.
Turning to `CC(=O)Nc1c(I)c(C(=O)N[C@H]2C(O)O[C@H](CO)[C@@H](O)[C@@H]2O)c(I)c(N(C)C(C)=O)c1I` (stereo partly specified) [Metrizamide], the fraction came to 0.166 ± 0.23.
To `Cc1nnc(NS(=O)(=O)c2ccc(N)cc2)s1` [Sulfamethizole (Proklar)] belongs 0.0757 ± 0.096; to `COc1ccc2c(c1)c(CC(=O)OCC(=O)O)c(C)n2C(=O)c1ccc(Cl)cc1` [Acemetacin (Emflex)], 0.0649 ± 0.09; to `CCN(CC)CCOC(=O)C(c1ccccc1)c1ccccc1` [Adiphenine HCl], 0.0636 ± 0.086.
In the case of `CCN(CC)CCNC(=O)c1c(C)[nH]c(/C=C2\C(=O)Nc3ccc(F)cc32)c1C` [Sunitinib Malate (Sutent)] it was 0.106 ± 0.081; in that of `Oc1c(Cl)cc(Cl)c2cccnc12` [Chloroxine], 0.13 ± 0.18; in that of `N#Cc1ccc(C(c2ccc(C#N)cc2)n2cncn2)cc1` [Letrozole], 0.0865 ± 0.11.
Turning to `Cc1ccc(N(CC2=NCCN2)c2cccc(O)c2)cc1` [Phentolamine mesilate], the fraction was found to be 0.138 ± 0.2.
In the case of `CC(=O)[C@H]1CC[C@H]2[C@@H]3CC=C4C[C@@H](O)CC[C@]4(C)[C@H]3CC[C@]12C` [Pregnenolone] it was 0.153 ± 0.23; in that of `Nc1ccc(S(N)(=O)=O)cc1` [Sulfanilamide], 0.076 ± 0.063.
For the molecule `CC[C@]1(O)C[C@H]2CN(CCc3c([nH]c4ccccc34)[C@@](C(=O)OC)(c3cc4c(cc3OC)N(C=O)[C@H]3[C@@](O)(C(=O)OC)[C@H](OC(C)=O)[C@]5(CC)C=CCN6CC[C@]43[C@@H]65)C2)C1` [Vincristine], the fraction amounted to 0.306 ± 0.19.
`OCC(CO)N[C@H]1C[C@](O)(CO)[C@@H](O)[C@H](O)[C@H]1O` [Voglibose] came in with a fraction of 0.121 ± 0.17.
As for `O=C(c1ccccc1)c1ccc2n1CCC2C(=O)O` (stereo unspecified) [Ketorolac (Toradol)], the fraction came to 0.0842 ± 0.067.
To `CCC(=O)OCC(=O)[C@@]1(OC(=O)CC)[C@@H](C)C[C@H]2[C@@H]3CCC4=CC(=O)C=C[C@]4(C)[C@@]3(F)[C@@H](O)C[C@@]21C` [Betamethasone Dipropionate (Diprolene)] belongs 0.0835 ± 0.071; to `CC[C@H]1OC(=O)C[C@@H](O)[C@H](C)[C@@H](O[C@@H]2O[C@H](C)[C@@H](O[C@H]3C[C@@](C)(O)[C@@H](O)[C@H](C)O3)[C@H](N(C)C)[C@H]2O)[C@@H](CC=O)C[C@@H](C)C(=O)/C=C/C(C)=C/[C@@H]1CO[C@@H]1O[C@H](C)[C@@H](O)[C@@H](OC)[C@H]1OC` [Tylosin tartrate], 0.148 ± 0.23.
`CN(C)[C@@H]1C(O)=C(C(=O)NCN2CCCC2)C(=O)[C@@]2(O)C(O)=C3C(=O)c4c(O)cccc4[C@@](C)(O)[C@H]3C[C@@H]12` [Rolitetracycline] returned a fraction of 0.117 ± 0.14.
Consider `Cc1ncc([N+](=O)[O-])n1CC(O)CCl` (stereo unspecified) [Ornidazole], for which the fraction is 0.0621 ± 0.078.
To `O=c1[nH]c(=O)n([C@H]2C[C@H](O)[C@@H](CO)O2)cc1I` [Idoxuridine] belongs 0.116 ± 0.17; to `CC[C@H](C)C(=O)O[C@H]1C[C@H](O)C=C2C=C[C@H](C)[C@H](CC[C@@H](O)C[C@@H](O)CC(=O)O)[C@H]21` [Pravastatin sodium], 0.145 ± 0.22.
To `C#CCC(Cc1cnc2nc(N)nc(N)c2n1)c1ccc(C(=O)N[C@@H](CCC(=O)O)C(=O)O)cc1` (stereo partly specified) [Pralatrexate (Folotyn)] belongs 0.0593 ± 0.052; to `CN(C(=O)CN(CCO)CC(=O)N(C)C(C)(C)Cc1ccccc1)C(C)(C)Cc1ccccc1` [Oxethazaine], 0.0909 ± 0.11.
